Experimental data as given in publication PMC10777497.
These are yes or no findings as the source states them, for the method shown. Binding seen in cells or lysates may run through a third protein. Some binding calls cover weakened binding; strength is not graded here. Sequences can lack the tags named with a protein.

Chains of the proteins cited; added tags and fusions are not shown. Lines headed by an entry give the natural chain unless they say otherwise; changes in a name come on top. Residues count along the entry.
UniProt P06761: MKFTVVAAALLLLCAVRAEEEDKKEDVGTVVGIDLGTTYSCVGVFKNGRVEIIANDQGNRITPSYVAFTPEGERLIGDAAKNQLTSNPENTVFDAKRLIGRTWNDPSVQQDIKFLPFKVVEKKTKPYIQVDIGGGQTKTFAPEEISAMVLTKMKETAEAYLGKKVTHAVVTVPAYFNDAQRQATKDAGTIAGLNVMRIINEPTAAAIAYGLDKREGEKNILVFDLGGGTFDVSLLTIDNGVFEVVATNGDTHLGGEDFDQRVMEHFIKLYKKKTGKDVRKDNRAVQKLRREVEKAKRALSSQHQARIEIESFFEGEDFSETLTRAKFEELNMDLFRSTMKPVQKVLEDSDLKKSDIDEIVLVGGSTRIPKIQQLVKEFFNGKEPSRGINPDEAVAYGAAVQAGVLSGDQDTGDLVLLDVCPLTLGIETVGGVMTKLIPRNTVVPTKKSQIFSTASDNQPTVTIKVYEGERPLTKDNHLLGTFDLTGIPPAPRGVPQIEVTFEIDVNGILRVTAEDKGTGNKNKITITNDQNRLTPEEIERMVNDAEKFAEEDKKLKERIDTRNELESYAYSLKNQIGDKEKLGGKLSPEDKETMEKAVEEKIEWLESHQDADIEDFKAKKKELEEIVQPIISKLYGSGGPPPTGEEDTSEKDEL
GST-GRP78-FL: residues 28-654 of P06761
GST-GRP78-NBD: residues 28-405 of P06761
GST-GRP78-SBD: residues 422-654 of P06761

Legend:
Test in all cases: pull-down; GST pull-down: GST-GRP78 proteins purified on glutathione Sepharose 4B beads, rotated with Flag-VEGF-B from lysed transfected 293T cells at 4 °C for 4 h, three washes, western blot; only the target purified
GST-GRP78-FL (rat) = GST-GRP78-FL (rat) (UniProt P06761)
GST-GRP78-NBD (rat) = GST-GRP78-NBD (rat) (UniProt P06761)
GST-GRP78-SBD (rat) = GST-GRP78-SBD (rat) (UniProt P06761)

Measured: binding

B1: Flag-VEGF-B (protein, UniProt O35485 22-207)
chain: PVSQFDGPSHQKKVVSWIDVYARATCQPREVVVPLSMELMGNVVKQLVPSCVTVQRCGGCCPDDGLECVPIGQHQVRMQILMIQYPSSQLGEMSLEEHSQCECRPKRKESAVKPDRVAIPHHRPQPRSVLSWDSAPGASSPADIIHPTPAPGPSAHAAPSAVSALIPGPAVAAADAAASSIAKGGA
binds: all assays above
